Measured values reported in the supplement of paper PMC10338343.
± gives the standard deviation. The entries are a selection whose mix differs from that of the whole data set. Many entries were measured with a wide error.

System: MIWI (PIWIL1) piRISC loaded with L1MC piRNA (30 nt)
Experiment: pre-steady-state target cleavage rate (min^-1); MIWI and MILI are mouse PIWI proteins and EfPiwi is from a freshwater sponge; tags in brackets are library labels; higher = faster piRNA-guided slicing of the target
Conditions: guide: L1MC piRNA 5'p-UAACUAAAUACUAUGCAAGCUGUAGGUCCU; auxiliary factor: 500 nM mouse GTSF1
In short: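 Reactions were run for 0–8 or 0–960 min at 33 °C in HEPES–potassium acetate buffer, combining 1 nM active affinity-purified piRISC with one synthetic guide, […] transcribed, DNA-blocked target RNA library and, in some cases, 500 nM GTSF1 partner protein. Sequencing of uncleaved targets followed, with normalisation to depth and to weakly complementary targets. Three trials were pooled, k3 was capped at 0.0001 min^-1, and the pre-steady-state cleavage rate was taken from a burst-and-steady-state fit.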
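Also: 1 nM active piRISC with 0.1 nM target library at 33 °C single turnover.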

| Sequence | pre-steady-state target cleavage rate |
| --- | --- |
| UCCUGGAUGUCGAACGUAUCUAAAUAGUUA | 0.000269 ± 0.015 |
| UGGACCUACAGCUUGCAUAGUAUUUAGUUU [g2:g29:cont:t1U] | 1.62 ± 0.082 |
| UCGACCUACAGCUUGCAUAGUAUUAUAGUUA | 1.32 ± 0.076 |
| UCCUGGAUGUCGAACCGUAGUAUUUAGUUA | 0.000217 ± 0.017 |
| UCCUGGAUGUCGAACGUAUCUAUUUAUUA | 0.000181 ± 0.032 |
| UCCUGGAUGUCGAACGUAUCUUAUUUAGUUA | 0.00038 ± 0.011 |

Same assay, conditions: guide: L1MC piRNA 5'p-UAACUAAAUACUAUGCAAGCUGUAGGUCCU; auxiliary factor: none (no GTSF1)

| Sequence | pre-steady-state target cleavage rate |
| --- | --- |
| UGGACCUACAGCUUGCGAUAGUAUUUAGUUA | 0.00148 ± 0.0036 |
| UCGACCAUGAGCUUGCAUAGUAUUUUCAAA | 0.00165 ± 0.0029 |
| AGGACCUACAGCUUCGAUAGUAUUUACAAA | 0.000703 ± 0.0094 |
| UCCUGGAUCAGCUUCGUUAGUAUUUAGUUA | 0.0018 ± 0.0046 |
| UCCACCUACAGCUUGCAUAGUAUAUAGAAA | 0.00129 ± 0.0049 |
| UCCACCUACAGCUUGGUAAGUAUUUACAAA | 0.000229 ± 0.012 |
| UGGACCUACAGCUUGGUUAGUAUUUAGAAA | 0.00206 ± 0.0026 |
| UCGACCUACAGCUUGCAAUCUAUUUAGUAA | 0.00174 ± 0.0031 |
| AGGACCUACAGCUUGCAUACUAUUUUCAAA | 0.00199 ± 0.0041 |
| UCCACCUAGUCCUUGCAUAGUAUUUAGAAA | 0.00186 ± 0.0024 |
| UGGACCUACAGCUUGCAAUGUAUUUACAAA | 0.000666 ± 0.0072 |
| UCCUGGAUCAGCUUCCAAAGUAUUUAGUUA | 0.00154 ± 0.0027 |
| UCCACCUACAGGAUGCAUAGUAUUUUCAAA | 0.000515 ± 0.01 |
| UGGACCUACAGGAUGCAUAGUAUUUACAAA | 0.00188 ± 0.0028 |
| ACCUCCUACAGCUUGCAUAGUAUUUUCAAA | 0.00225 ± 0.0042 |
| UGGACCUACUCGUUGCAUAGUAUUUUCAAA | 0.00076 ± 0.0054 |
| UCGUGCUACAGCUUGCAUAGUAUUUUCAAA | 0.00185 ± 0.0036 |

| Sequence | pre-steady-state target cleavage rate |
| --- | --- |
| AGGACCUACAGCUACGAUAGUAUUUAGUAA | 0.000323 ± 0.011 |
| AGGACCUACAGCUUGCAUUCUAUUUAGAAA | 0.00161 ± 0.0043 |
| AGGACCUACAGCUUGGUUAGUAUUUAGAAA | 0.00163 ± 0.0035 |
| UCCACCUACAGCUUGCAUUCUAUUUUCAAA | 0.000751 ± 0.0078 |
| UCCACCUACACGUUGCAUAGUAUUUACAAA | 0.0011 ± 0.0055 |
| UCCACCUACAGCUUGGUUAGUAUUUACAAA | 0.000723 ± 0.0068 |
| AGGACCUACAGCUUCCAUAGUAUUUAGAUA | 0.0013 ± 0.0057 |
| UCCACCUACAGCUUCCAUAGUAUUUUCAAA | 0.000647 ± 0.011 |
| UCCAGCUACAGCUUGCAUAGUAUUUUCAAA | 0.00263 ± 0.0028 |
| UCCUGGUACAGCUUGCUAUAGUAUUUAGUUA | 0.00278 ± 0.0038 |
| AGGACCUACAGCUUCCAUAGAAUUUAGUUA | 0.00144 ± 0.0032 |
| UCCACCUACAGCUUGCAUACAAUUUAGUAA | 0.00151 ± 0.0043 |
| UCCUGGAUGUCCUUCCAUACUAUUUAGUUA | 0.000116 ± 0.029 |
| AGGACCAUGAGCUUGCAUAGUAUUUUCAAA | 0.00199 ± 0.0036 |
| UCCACCUACAGCUUGCAUAGUAUUUAUUA | 0.00161 ± 0.0037 |
| AGGACCUACAGCUUGCAUAGUUAAAUCAAA [g10:g30:cont:t1A] | 0.00113 ± 0.0073 |
| AGGACCUACAGCUUGCUAAGUAUUUAGAAA | 0.00087 ± 0.0072 |

2 entries from above, as tab-separated lines.
Sequence	pre-steady-state target cleavage rate
UCCACCUACACGUUGCAUAGUAUUUACAAA	0.0011 ± 0.0055
UCCACCUACAGCUUGGUUAGUAUUUACAAA	0.000723 ± 0.0068
